Results taken from PubChem BioAssay AID192 (DTP/NCI, 2004).
The list is a part of this screen's results and no random one: it gathers tests that were run many times, whatever their T/C, doses with no T/C, and many T/C values between a quarter and a half above the control. Other doses and runs of a compound stand elsewhere. T/C is the treated group as % of the vehicle group. Some entries give survivors of the animals treated and no T/C: the source holds a T/C of zero for them, seemingly a mark for toxic or unscored doses. Some doses without a T/C left all or most animals alive at the check, yet need not have been tolerated: the source hardly ever lists a survival T/C far under the control, and the zero likely stands for such cases as well. Counts of survivors are from the toxicity check (mostly the fifth day) where no day follows; animals may have died later. Schedule codes are those of the source, taken here to give the interval after Q, in days (D) or hours (H), and the number of doses after X. Some structures stand for samples that the source files as different forms (salt, stereo form or complex); doses refer to the form tested. Some doses were run more than once; the values are given in rising order. Where survival is the endpoint, this PubChem deposit counts one and a half times the control or more as active, and values a quarter to a half above the control carry no call in these data; other NCI protocols may use other cut-offs. Some T/C values carry the count of animals alive at the toxicity check (mostly the fifth day); without a count, all were alive then.

Tested on: BDF1 mice, B16 melanoma ip, median survival T/C
Experiment: NCI In Vivo Anticancer Drug Screen. Data for tumor model B16 Melanoma (intraperitoneal) in B6D2F1 (BDF1) mice
Settings: T/C endpoint: median survival time, higher T/C = longer survival
Description: The antitumor activity of compounds was measured in mice bearing transplantable tumors. Survival or tumor size were measured and the results are expressed as the measurement made in the treated group (T) divided by the measurement made in the vehicle treated control group (C). The tumor model used in this assay is B16 Melanoma (intraperitoneal) in B6D2F1 (BDF1) mice

[1] = dose: 100.0 mg/kg/injection, schedule: Q01DX009 (ip), vehicle: saline
[2] = dose: 40.0 micrograms/kg/injection, schedule: Q01DX009 (ip), vehicle: saline
[3] = dose: 100.0 mg/kg/injection, schedule: Q01DX009 (ip), vehicle: Klucel (hydroxypropylcellulose) (HPC)
[4] = dose: 200.0 mg/kg/injection, schedule: Q01DX009 (ip), vehicle: Klucel (hydroxypropylcellulose) (HPC)
[5] = dose: 400.0 mg/kg/injection, schedule: Q01DX009 (ip), vehicle: Klucel (hydroxypropylcellulose) (HPC)
[6] = dose: 25.0 mg/kg/injection, schedule: Q01DX009 (ip), vehicle: Klucel (hydroxypropylcellulose) (HPC)
[7] = dose: 50.0 mg/kg/injection, schedule: Q01DX009 (ip), vehicle: Klucel (hydroxypropylcellulose) (HPC)
[8] = dose: 400.0 mg/kg/injection, schedule: Q04DX003 (ip), vehicle: saline with Tween-80
[9] = dose: 200.0 mg/kg/injection, schedule: Q01DX009 (ip), vehicle: saline
[10] = dose: 400.0 mg/kg/injection, schedule: Q01DX009 (ip), vehicle: saline
[11] = dose: 64.0 mg/kg/injection, schedule: Q01DX009 (ip), vehicle: Klucel (hydroxypropylcellulose) (HPC)
[12] = dose: 128.0 mg/kg/injection, schedule: Q01DX009 (ip), vehicle: Klucel (hydroxypropylcellulose) (HPC)
[13] = dose: 50.0 mg/kg/injection, schedule: Q01DX009 (ip), vehicle: water

## CCCCCOC(CN)C(Cl)(Cl)Cl (centres undefined)
[1]
  survivor count: 10 of 10

## O=C1C(N2CC2)=C(N2CC2)C(=O)C(N2CC2)=C1N1CC1
dose: 20.0 micrograms/kg/injection, schedule: Q01DX009 (ip), vehicle: saline
  survivor count: 10 of 10
[2]
  T/C: 140 % of control
  survivor count: 10 of 10
dose: 80.0 micrograms/kg/injection, schedule: Q01DX009 (ip), vehicle: saline
  survivor count: 10 of 10

## ClCCCCCCCCCCc1ccccc1
[3]
  survivor count: 10 of 10
[4]
  survivor count: 10 of 10
[5]
  survivor count: 10 of 10

## Cc1c(CCl)c(C)c(CCl)c(C)c1CCl
[6]
  survivor count: 9 of 9
[7]
  survivor count: 10 of 10
[3]
  survivor count: 3 of 10

## Cc1c2cnccc2c(C)c2c1c1ccccc1n2CC1CO1 (centres undefined)
dose: 30.0 mg/kg/injection, schedule: Q01DX009 (ip), vehicle: Klucel (hydroxypropylcellulose) (HPC)
  survivor count: 10 of 10

## COCC1OC(OC2OCC3OC4(OCC(O)(C(C)OC)C5OCOC54)OC3C2OC)C(OC)C(O)C1OC1OC(C)C(OC)C(OC2OC(C)C3OC4(CC(O)C(OC5CC(OC6CC(C)([N+](=O)[O-])C(OC)C(C)O6)C(OC(=O)c6c(C)c(Cl)c(O)c(Cl)c6OC)C(C)O5)C(C)O4)OC3(C)C2O)C1O (centres undefined)
[1]
  survivor count: 10 of 10

## CN(C)CCN(Cc1ccccc1)c1ccccc1
dose: 100.0 mg/kg/injection, schedule: Q04DX003 (ip), vehicle: Klucel (hydroxypropylcellulose) (HPC)
  survivor count: 10 of 10

## O=[N+]([O-])c1ccc(NCCO)c([N+](=O)[O-])c1
[8]
  survivor count: 8 of 10

## CC(C)OCCS(=O)(=O)Oc1ncc(Cl)cc1Cl
[8]
  survivor count: 10 of 10

## C(COCCOCC1CO1)OCCOCC1CO1 (centres undefined)
[9]
  T/C: 138 % of control
dose: 400.0 mg/kg/injection, schedule: Q01DX009 (ip), vehicle: saline with Tween-80
  survivor count: 3 of 10
[10]
  survivor count: 5 of 6

## COc1cc([C@@H]2c3cc4c(c(O)c3C[C@H]3COC(=O)[C@@H]32)OCO4)cc(OC)c1OC
dose: 2.0 mg/kg/injection, schedule: Q01DX009 (ip), vehicle: saline
  survivor count: 5 of 10
dose: 2.0 mg/kg/injection, schedule: Q01DX009 (ip), vehicle: suspension in saline
  survivor count: 7 of 10
dose: 4.0 mg/kg/injection, schedule: Q01DX009 (ip), vehicle: saline
  survivor count: 2 of 10
dose: 4.0 mg/kg/injection, schedule: Q01DX009 (ip), vehicle: suspension in saline
  survivor count: 4 of 10

## CNCCC=C1c2ccccc2CCc2ccccc21
dose: 50.0 mg/kg/injection, schedule: Q01DX009 (ip), vehicle: saline
  survivor count: 7 of 10
[1]
  survivor count: 0 of 10

## O=C1c2ccccc2C(=O)c2c(NCCCCCO)ccc(NCCCCCO)c21
[11]
  survivor count: 10 of 10
[12]
  survivor count: 10 of 10

## O=C(/C(=C\c1ccccc1)CBr)c1ccccc1
dose: 0.75 mg/kg/injection, schedule: Q01DX009 (ip), vehicle: Klucel (hydroxypropylcellulose) (HPC)
  survivor count: 10 of 10
dose: 1.5 mg/kg/injection, schedule: Q01DX009 (ip), vehicle: Klucel (hydroxypropylcellulose) (HPC)
  survivor count: 10 of 10
dose: 3.0 mg/kg/injection, schedule: Q01DX009 (ip), vehicle: Klucel (hydroxypropylcellulose) (HPC)
  survivor count: 10 of 10
dose: 6.25 mg/kg/injection, schedule: Q01DX009 (ip), vehicle: Klucel (hydroxypropylcellulose) (HPC)
  survivor count: 7 of 10
dose: 12.5 mg/kg/injection, schedule: Q01DX009 (ip), vehicle: Klucel (hydroxypropylcellulose) (HPC)
  survivor count: 10 of 10
[6]
  survivor count: 2 of 10

## CP(=S)(c1ccccc1)P(C)(=S)c1ccccc1 (centres undefined)
[3]
  T/C: 128 % of control
[5]
  T/C: 129 % of control

## CNC(=S)NCc1ccc(C(=O)NC(C)C)cc1
[5]
  survivor count: 9 of 10

## O=C(O)C1CC(c2ccccc2)=NN1c1ccccc1 (centres undefined)
[13]
  T/C: 126 % of control
dose: 400.0 mg/kg/injection, schedule: Q01DX009 (ip), vehicle: water
  survivor count: 3 of 10

## O=C(O)CCC(=O)O
dose: 80.0 mg/kg/injection, schedule: Q01DX009 (ip), vehicle: water
  survivor count: 10 of 10
dose: 160.0 mg/kg/injection, schedule: Q01DX009 (ip), vehicle: water
  survivor count: 9 of 10 and 10 of 10
dose: 640.0 mg/kg/injection, schedule: Q01DX009 (ip), vehicle: water
  survivor count: 2 of 10

## COc1cc(-c2ccc(Nc3ccccc3C(=O)O)c(OC)c2)ccc1Nc1ccccc1C(=O)O
[1]
  T/C: 126 % of control
[9]
  T/C: 126 % of control
[10]
  survivor count: 9 of 10

## O=NNc1cnccn1
dose: 12.5 mg/kg/injection, schedule: Q01DX009 (ip), vehicle: water
  T/C: 136 % of control
[13]
  survivor count: 9 of 10
dose: 100.0 mg/kg/injection, schedule: Q01DX009 (ip), vehicle: water
  survivor count: 10 of 10
dose: 200.0 mg/kg/injection, schedule: Q01DX009 (ip), vehicle: water
  survivor count: 0 of 10

## CNC=O
[10]
  survivor count: 10 of 10
dose: 800.0 mg/kg/injection, schedule: Q01DX009 (ip), vehicle: saline
  survivor count: 9 of 10
dose: 1600.0 mg/kg/injection, schedule: Q01DX009 (ip), vehicle: saline
  survivor count: 8 of 10
dose: 3200.0 mg/kg/injection, schedule: Q01DX009 (ip), vehicle: saline
  survivor count: 2 of 10

## COC(=O)Nc1cccc(-c2nc3ccc(NC(=O)OC)cc3c(=O)n2-c2ccccc2)c1
dose: 16.0 mg/kg/injection, schedule: Q01DX009 (ip), vehicle: saline
  T/C: 148 % of control
dose: 25.0 mg/kg/injection, schedule: Q04DX006 (ip), vehicle: saline
  T/C: 126 % of control
dose: 32.0 mg/kg/injection, schedule: Q01DX009 (ip), vehicle: Klucel (hydroxypropylcellulose) (HPC)
  T/C: 127 % of control [9 of 10 alive]
dose: 32.0 mg/kg/injection, schedule: Q01DX009 (ip), vehicle: saline
  T/C: 146 % of control
[11]
  survivor count: 4 of 10
dose: 75.0 mg/kg/injection, schedule: Q04DX006 (ip), vehicle: saline
  T/C: 125 % of control
[12]
  survivor count: 0 of 10
dose: 128.0 mg/kg/injection, schedule: Q01DX009 (ip), vehicle: saline
  T/C: 131 % of control [9 of 10 alive]
dose: 200.0 mg/kg/injection, schedule: Q04DX005 (ip), vehicle: other
  survivor count: 9 of 9
dose: 256.0 mg/kg/injection, schedule: Q01DX009 (ip), vehicle: Klucel (hydroxypropylcellulose) (HPC)
  survivor count: 0 of 10
dose: 256.0 mg/kg/injection, schedule: Q01DX009 (ip), vehicle: saline
  survivor count: 10 of 10

## Cn1c2ccccc2c(=O)c2ccc(Cl)cc21
[4]
  survivor count: 10 of 10
[5]
  survivor count: 10 of 10

## C[C@@H]1C[C@@]2(O[C@@H]2C)C(=O)O[C@@H]2CCN3CC=C(COC(=O)[C@]1(C)O)[C@H]23
dose: 80.0 mg/kg/injection, schedule: Q01DX009 (ip), vehicle: saline
  survivor count: 2 of 6

## COc1cc(C=Nc2cccc(C(F)(F)F)c2)ccc1O
[5]
  survivor count: 9 of 10

## O=C1CN=C(c2ccccc2)c2cc(Cl)ccc2N1
[7]
  survivor count: 8 of 10
[3]
  survivor count: 8 of 10

## CCOC(=O)CN1CCC2CC1c1c([nH]c3ccccc13)C2c1cc2c(cc1OC)N(C)C1C(O)(C(=O)OC)C(OC(C)=O)C3(CC)C=CCN4CCC21C43 (centres undefined)
dose: 0.25 mg/kg/injection, schedule: Q01DX009 (ip), vehicle: other
  survivor count: 10 of 10

## CCN1C(=O)CC2(CCN(C)CC2)C1=O
[9]
  survivor count: 10 of 10
[10]
  survivor count: 9 of 10

## CC(CO)NC(=O)C1C=C2c3cccc4[nH]cc(c34)CC2N(C)C1 (centres undefined)
[1]
  survivor count: 10 of 10
[10]
  survivor count: 7 of 10
